# Some of the results follow.
# Compound: CC1Cc2ccccc2N1C(=O)C1CCCN(C1)C(=O)CCl (mixture of isomers) [TRIM25 ligand 11 (diastereomer mixture)]
# Experiment: probe-labelled cysteine peptide fold change vs DMSO (competition) (log2 fold change); higher = less target engagement (more negative = stronger competition)
# Details: THP-1, incubation time: 4 h
# 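Also: competitive chemoproteomic profiling in live THP-1 cells with an iodoacetamide desthiobiotin (IA-DTB) probe, comparing probe-labelled peptide intensities in compound-treated cells against DMSO-treated controls.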
Target,probe-labelled cysteine peptide fold change (10 µM),probe-labelled cysteine peptide fold change (50 µM)
CSTF3_Q12996_176_GCVNPMINIEQLWR (UniProt Q12996),0.0135,0.0147
CTBP2_P56545_318_DAPNLICTPHTAWYSEQASLEMR (UniProt P56545),-0.0315,-0.0653
CSK_P41240_31_YNFHGTAEQDLPFCK (UniProt P41240),-0.0157,-0.122
COQ8A_Q8NI60_641_AMFEEAYSNYCK (UniProt Q8NI60),0.0929,-0.0413
CTBS_Q01459_93_YDSELMCYAHSK (UniProt Q01459),0.0533,0.0371
CSNK1A1_P48729_249_MSTPVEVLCK (UniProt P48729),-0.305,-0.401
CTNNA1_P35221_772_TIADHCPDSACK (UniProt P35221),-0.0482,-0.0902
CPNE2_Q96FN4_265_DSVPLEFECINPK (UniProt Q96FN4),-0.22,-0.165
CRIP2_P52943_57_PCYATLFGPK (UniProt P52943),0.0354,-0.135
CSE1L_P55060_325_YDLLVSNAIQFLASVCERPHYK (UniProt P55060),-0.273,-0.206
CRIP2_P52943_150_DWHRPCLR (UniProt P52943),0.642,-0.0653
COQ8B_Q96D53_499_LAGAFLACAHLR (UniProt Q96D53),-0.06,0.0819
CSTF1_Q05048_402+415_CIVHSPTNPGFMTCSDDFR (UniProt Q05048),-0.0612,-0.16
CSE1L_P55060_85_ICEADR (UniProt P55060),-0.0358,0.149
CTCF_P49711_497_CDQCDYACR (UniProt P49711),-0.0139,0.0637
CPSF2_Q9P2I0_187_EIHLNGCSLEMLSR (UniProt Q9P2I0),0.161,0.0342
CORO1B_Q9BR76_345_KCEPIVMTVPR (UniProt Q9BR76),-0.102,-0.0829
CTDP1_Q9Y5B0_114_LEGCSHPVVMK (UniProt Q9Y5B0),-0.0347,0.14

# A portion taken from the entries so far, as a working copy:
Target,probe-labelled cysteine peptide fold change (10 µM),probe-labelled cysteine peptide fold change (50 µM)
CPNE2_Q96FN4_265_DSVPLEFECINPK (UniProt Q96FN4),-0.22,-0.165
CRIP2_P52943_57_PCYATLFGPK (UniProt P52943),0.0354,-0.135
CSE1L_P55060_325_YDLLVSNAIQFLASVCERPHYK (UniProt P55060),-0.273,-0.206

# More records.

Target,probe-labelled cysteine peptide fold change (10 µM),probe-labelled cysteine peptide fold change (50 µM)
CPPED1_Q9BRF8_197_HCQHAIVFQHIPLFLESIDEDDDYYFNLSK (UniProt Q9BRF8),-0.00515,-0.0291
CSRP1_P21291_34+37_SCFLCMVCK (UniProt P21291),-0.0675,0.146
CRBN_Q96SW2_234_FHCANLTSWPR (UniProt Q96SW2),0.147,0.121
CPNE1_Q99829_4+14_AHCVTLVQLSISCDHLIDK (UniProt Q99829),0.0618,-0.184
CTNNA1_P35221_228_NVPILYTASQACLQHPDVAAYK (UniProt P35221),0.051,0.218
CTDNEP1_O95476_161_QHCTLELGSYIK (UniProt O95476),0.00639,0.0362
CTNNA2_P26232_792_IALYCHQLNICSK (UniProt P26232),-0.0111,0.118
CPD_O75976_1140_HLASLYANNHPSMHMGQPSCPNK (UniProt O75976),0.221,-0.368
CPPED1_Q9BRF8_88_FFVLCGDLIHAMPGKPWR (UniProt Q9BRF8),-0.127,-0.14
CSMD2_Q7Z408-3_2_CDAHLR (UniProt Q7Z408),-0.56,-0.972
CSNK2B_P67870_23_GNEFFCEVDEDYIQDK (UniProt P67870),0.0176,-0.0733
CORO7_P57737_325_QALAVMSCEVLR (UniProt P57737),0.179,0.183
CSDE1_O75534_53_LFFHCSQYNGNLQDLK (UniProt O75534),0.322,-0.294
CORO7_P57737_695_CLLVSGFDSQSER (UniProt P57737),-0.101,0.0403
CST3_P01034_109_TQPNLDNCPFHDQPHLK (UniProt P01034),-0.0536,-0.101
CSE1L_P55060_61_VCASVTFK (UniProt P55060),-0.0773,0.131
CTCF_P49711_557_YHDPNFVPAAFVCSK (UniProt P49711),-0.0756,-0.00832
CTDSPL_O15194_197_ESCVFHR (UniProt O15194),0.071,0.134

# — the supplement of paper PMC12067093, “Discovery and optimisation of a covalent ligand for TRIM25 and its application to targeted protein ubiquitination” (Chemical Science, 2025)
